Experimental data as given in the supplement of paper PMC8728848.
The list shows a part of the results.

Tests used:
Assay in all cases: glycan array binding signal (z-score within array); higher = stronger binding
Conditions in all cases: glycan notation: IUPAC condensed, linker removed
[1] = target: Fuc(a1-2)Gal
Method in brief: (§1)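 Negative Z-scores can be read as non-binding. The Z-score is calculated within each array and then averaged across arrays of one protein sequence at different concentrations or buffers and across linkers. Arrays, 3228 in all, were curated from the Consortium for Functional Glycomics database and kept only where the protein sequence was available.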

[2] = target: Fuc(a1-2)Gal(b1-3)GalNAc
Method in brief: as §1

[3] = target: Fuc(a1-2)Gal(b1-3)GalNAc(a1-3)[Fuc(a1-2)]Gal(b1-4)Glc
Method in brief: as §1

[4] = target: Fuc(a1-2)Gal(b1-3)GalNAc(a1-3)[Fuc(a1-2)]Gal(b1-4)GlcNAc
Method in brief: as §1

[5] = target: Fuc(a1-2)Gal(b1-3)GalNAc(b1-3)Gal
Method in brief: as §1

[6] = target: Fuc(a1-2)Gal(b1-3)GalNAc(b1-3)Gal(a1-4)Gal(b1-4)Glc
Method in brief: as §1

[7] = target: Fuc(a1-2)Gal(b1-3)GalNAc(b1-4)[Neu5Ac(a2-3)]Gal(b1-4)Glc
Method in brief: as §1

[8] = target: Fuc(a1-2)Gal(b1-3)GlcNAc
Method in brief: as §1

[9] = target: Fuc(a1-2)Gal(b1-3)GlcNAc(b1-2)Man(a1-3)[Fuc(a1-2)Gal(b1-3)GlcNAc(b1-2)Man(a1-6)]Man(b1-4)GlcNAc(b1-4)GlcNAc
Method in brief: as §1

[10] = target: Fuc(a1-2)Gal(b1-3)GlcNAc(b1-2)Man(a1-3)[Fuc(a1-2)Gal(b1-3)GlcNAc(b1-2)Man(a1-6)]Man(b1-4)GlcNAc(b1-4)[Fuc(a1-6)]GlcNAc
Method in brief: as §1

[11] = target: Fuc(a1-2)Gal(b1-3)GlcNAc(b1-3)Gal(b1-4)Glc
Method in brief: as §1

[12] = target: Fuc(a1-2)Gal(b1-3)GlcNAc(b1-3)GalNAc
Method in brief: as §1

[13] = target: Fuc(a1-2)Gal(b1-3)GlcNAc(b1-3)[Fuc(a1-2)Gal(b1-3)GlcNAc(b1-6)]GalNAc
Method in brief: as §1

[14] = target: Fuc(a1-2)Gal(b1-3)GlcNAc(b1-3)[Gal(b1-4)GlcNAc(b1-6)]Gal(b1-4)Glc
Method in brief: as §1

[15] = target: Fuc(a1-2)Gal(b1-3)GlcNAc(b1-3)[Neu5Ac(a2-6)Gal(b1-4)GlcNAc(b1-6)]Gal(b1-4)Glc
Method in brief: as §1

[16] = target: Fuc(a1-2)Gal(b1-3)GlcNAc6S
Method in brief: as §1

[17] = target: Fuc(a1-2)Gal(b1-3)[Fuc(a1-4)]GlcNAc
Method in brief: as §1

[18] = target: Fuc(a1-2)Gal(b1-3)[Fuc(a1-4)]GlcNAc(b1-2)Man(a1-3)[Fuc(a1-2)Gal(b1-3)[Fuc(a1-4)]GlcNAc(b1-2)Man(a1-3)]Man(b1-4)GlcNAc(b1-4)GlcNAc
Method in brief: as §1

[19] = target: Fuc(a1-2)Gal(b1-3)[Fuc(a1-4)]GlcNAc(b1-2)Man(a1-3)[Fuc(a1-2)Gal(b1-3)[Fuc(a1-4)]GlcNAc(b1-2)Man(a1-6)]Man(b1-4)GlcNAc(b1-4)[Fuc(a1-6)]GlcNAc(b1-4)[Fuc(a1-6)]GlcNAc
Method in brief: as §1

[20] = target: Fuc(a1-2)Gal(b1-3)[Fuc(a1-4)]GlcNAc(b1-3)[Fuc(a1-3)[Gal(b1-4)]GlcNAc(b1-6)]Gal(b1-4)Glc
Method in brief: as §1

[21] = target: Fuc(a1-2)Gal(b1-3)[Fuc(a1-4)]GlcNAc(b1-3)[Gal(b1-4)GlcNAc(b1-6)]Gal(b1-4)Glc
Method in brief: as §1

[22] = target: Fuc(a1-2)Gal(b1-4)Glc
Method in brief: as §1

[23] = target: Fuc(a1-2)Gal(b1-4)Glc6S
Method in brief: as §1

[24] = target: Fuc(a1-2)Gal(b1-4)GlcNAc
Method in brief: as §1

[25] = target: Fuc(a1-2)Gal(b1-4)GlcNAc(b1-2)Man
Method in brief: as §1

[26] = target: Fuc(a1-2)Gal(b1-4)GlcNAc(b1-2)Man(a1-3)[Fuc(a1-2)Gal(b1-4)GlcNAc(b1-2)Man(a1-6)]Man(b1-4)GlcNAc(b1-4)GlcNAc
Method in brief: as §1

[27] = target: Fuc(a1-2)Gal(b1-4)GlcNAc(b1-2)Man(a1-3)[Fuc(a1-2)Gal(b1-4)GlcNAc(b1-2)Man(a1-6)]Man(b1-4)GlcNAc(b1-4)[Fuc(a1-6)]GlcNAc
Method in brief: as §1

[28] = target: Fuc(a1-2)Gal(b1-4)GlcNAc(b1-2)[Fuc(a1-2)Gal(b1-4)GlcNAc(b1-4)]Man(a1-3)[Fuc(a1-2)Gal(b1-4)GlcNAc(b1-2)Man(a1-6)]Man(b1-4)GlcNAc(b1-4)GlcNAc
Method in brief: as §1

[29] = target: Fuc(a1-2)Gal(b1-4)GlcNAc(b1-3)Gal(b1-4)GlcNAc
Method in brief: as §1

[30] = target: Fuc(a1-2)Gal(b1-4)GlcNAc(b1-3)Gal(b1-4)GlcNAc(b1-2)Man(a1-3)[Fuc(a1-2)Gal(b1-4)GlcNAc(b1-3)Gal(b1-4)GlcNAc(b1-2)Man(a1-6)]Man(b1-4)GlcNAc(b1-4)GlcNAc
Method in brief: as §1

B1: PX14343G-pdi-535-24-535 (Parabacteroides distasonis) (protein)
chain: LDTVPKDQLAPSTTWQTEADAKGFIVGCYKDLLDGNTLLYLDCGSDIGYNNFPWEGFRPWGDGSLSSSNPGQILYDYKSIRKANTFLENVDKVTFSSDAVKANYVAQAKAIRAYKYFLMNWWYGGVPIISSYSSADEAKVERNTEQEVRDYIAKDLDEALAGIAEAPEARGYIAKGAVLAIKMREALYYGDWQKAKDAAKAIIDLKQYELDPDYTNLFKVSGVDSKEIILADQNIETLDGLGTIGQMYNNVDQGWSSIVPTQNLVDMYEMSDGLTKEESKTYDAKHPFANRDPRMAMTILYPGRDWRGDVLNTLDEKLQDGTVNKNFPTYTDNASKSALTWAKYLDPMDQYGDVWSSGACPIVFRYAEVLLTYAEAANELSGPSDEIYGYLNQIRQRVGMGEVDKAKYGTKDKLRELIRRERTVELAGEGLRRADIVRWQEDGKMLAEKVMNGDLLRVTGTINYGESEPTKRAEITGTAVIETRQFSSRNRYLPIPQTSMDKNPNLKQNPGY
**Q.** Which “glycan array binding signal (z-score)” value [1] does the source give for B1 here?
**A.** -0.305

**Q.** And the “glycan array binding signal (z-score)” value [2]?
**A.** -1.05

**Q.** And the “glycan array binding signal (z-score)” value [3]?
**A.** -0.144

**Q.** And the “glycan array binding signal (z-score)” value [4]?
**A.** -0.103

**Q.** What about the “glycan array binding signal (z-score)” value [5] of the same binder?
**A.** 0.221

**Q.** And the “glycan array binding signal (z-score)” value [6]?
**A.** -0.074

**Q.** What about the “glycan array binding signal (z-score)” value [7] of the same binder?
**A.** -0.439

**Q.** What about the “glycan array binding signal (z-score)” value [8] of the same binder?
**A.** -0.457

**Q.** What about the “glycan array binding signal (z-score)” value [9] of the same binder?
**A.** 0.725

**Q.** What about the “glycan array binding signal (z-score)” value [10] of the same binder?
**A.** -0.691

**Q.** What about the “glycan array binding signal (z-score)” value [11] of the same binder?
**A.** -0.908

**Q.** What about the “glycan array binding signal (z-score)” value [12] of the same binder?
**A.** -0.429

**Q.** And the “glycan array binding signal (z-score)” value [13]?
**A.** -0.578

**Q.** What about the “glycan array binding signal (z-score)” value [14] of the same binder?
**A.** -1.03

**Q.** And the “glycan array binding signal (z-score)” value [15]?
**A.** -0.081

**Q.** What about the “glycan array binding signal (z-score)” value [16] of the same binder?
**A.** -0.083

**Q.** And the “glycan array binding signal (z-score)” value [17]?
**A.** -1.36

**Q.** And the “glycan array binding signal (z-score)” value [18]?
**A.** 0.757

**Q.** And the “glycan array binding signal (z-score)” value [19]?
**A.** -0.302

**Q.** What about the “glycan array binding signal (z-score)” value [20] of the same binder?
**A.** -0.419

**Q.** What about the “glycan array binding signal (z-score)” value [21] of the same binder?
**A.** 0.199

**Q.** And the “glycan array binding signal (z-score)” value [22]?
**A.** -0.597

**Q.** What about the “glycan array binding signal (z-score)” value [23] of the same binder?
**A.** 0.228

**Q.** And the “glycan array binding signal (z-score)” value [24]?
**A.** -0.042

**Q.** What about the “glycan array binding signal (z-score)” value [25] of the same binder?
**A.** 1.37

**Q.** And the “glycan array binding signal (z-score)” value [26]?
**A.** 0.68

**Q.** And the “glycan array binding signal (z-score)” value [27]?
**A.** 1.06

**Q.** And the “glycan array binding signal (z-score)” value [28]?
**A.** 0.359

**Q.** And the “glycan array binding signal (z-score)” value [29]?
**A.** -0.666

**Q.** What about the “glycan array binding signal (z-score)” value [30] of the same binder?
**A.** 0.503
